# Experimental data as given in the supplement of paper PMC7666118.
# Chains of the proteins cited; added tags and fusions are not shown. Lines headed by an entry give the natural chain unless they say otherwise; changes in a name come on top.
# UniProt O14657: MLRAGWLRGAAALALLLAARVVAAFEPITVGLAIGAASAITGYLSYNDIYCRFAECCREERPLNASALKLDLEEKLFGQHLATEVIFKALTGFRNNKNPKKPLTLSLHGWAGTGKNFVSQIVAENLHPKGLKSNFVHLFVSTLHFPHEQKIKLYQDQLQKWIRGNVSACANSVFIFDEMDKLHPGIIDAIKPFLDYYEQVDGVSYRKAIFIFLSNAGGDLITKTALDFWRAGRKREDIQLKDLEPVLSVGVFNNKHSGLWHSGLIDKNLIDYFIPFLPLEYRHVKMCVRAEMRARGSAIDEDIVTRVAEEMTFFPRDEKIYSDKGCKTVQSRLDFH
# UniProt Q9UM00: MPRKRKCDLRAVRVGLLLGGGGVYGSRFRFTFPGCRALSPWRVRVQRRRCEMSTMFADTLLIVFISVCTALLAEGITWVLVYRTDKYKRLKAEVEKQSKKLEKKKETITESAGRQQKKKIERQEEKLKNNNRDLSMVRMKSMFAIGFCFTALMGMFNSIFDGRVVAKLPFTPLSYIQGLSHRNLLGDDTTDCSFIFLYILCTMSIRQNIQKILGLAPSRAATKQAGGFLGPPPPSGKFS
# UniProt O14545: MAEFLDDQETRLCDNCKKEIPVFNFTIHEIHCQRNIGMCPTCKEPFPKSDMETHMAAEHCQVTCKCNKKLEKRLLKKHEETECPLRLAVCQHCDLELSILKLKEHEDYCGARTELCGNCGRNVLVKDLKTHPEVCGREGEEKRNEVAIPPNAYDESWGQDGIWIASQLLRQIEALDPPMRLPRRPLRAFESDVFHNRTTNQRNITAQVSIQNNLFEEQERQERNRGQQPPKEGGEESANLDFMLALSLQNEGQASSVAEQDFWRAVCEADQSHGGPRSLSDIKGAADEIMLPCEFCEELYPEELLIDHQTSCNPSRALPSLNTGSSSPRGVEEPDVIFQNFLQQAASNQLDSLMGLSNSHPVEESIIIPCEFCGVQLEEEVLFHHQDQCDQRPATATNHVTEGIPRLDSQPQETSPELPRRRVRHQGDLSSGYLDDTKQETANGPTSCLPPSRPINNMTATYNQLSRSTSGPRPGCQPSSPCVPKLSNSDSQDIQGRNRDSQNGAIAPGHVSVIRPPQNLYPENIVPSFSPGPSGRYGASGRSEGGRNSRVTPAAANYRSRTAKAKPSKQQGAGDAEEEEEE
# UniProt O15164: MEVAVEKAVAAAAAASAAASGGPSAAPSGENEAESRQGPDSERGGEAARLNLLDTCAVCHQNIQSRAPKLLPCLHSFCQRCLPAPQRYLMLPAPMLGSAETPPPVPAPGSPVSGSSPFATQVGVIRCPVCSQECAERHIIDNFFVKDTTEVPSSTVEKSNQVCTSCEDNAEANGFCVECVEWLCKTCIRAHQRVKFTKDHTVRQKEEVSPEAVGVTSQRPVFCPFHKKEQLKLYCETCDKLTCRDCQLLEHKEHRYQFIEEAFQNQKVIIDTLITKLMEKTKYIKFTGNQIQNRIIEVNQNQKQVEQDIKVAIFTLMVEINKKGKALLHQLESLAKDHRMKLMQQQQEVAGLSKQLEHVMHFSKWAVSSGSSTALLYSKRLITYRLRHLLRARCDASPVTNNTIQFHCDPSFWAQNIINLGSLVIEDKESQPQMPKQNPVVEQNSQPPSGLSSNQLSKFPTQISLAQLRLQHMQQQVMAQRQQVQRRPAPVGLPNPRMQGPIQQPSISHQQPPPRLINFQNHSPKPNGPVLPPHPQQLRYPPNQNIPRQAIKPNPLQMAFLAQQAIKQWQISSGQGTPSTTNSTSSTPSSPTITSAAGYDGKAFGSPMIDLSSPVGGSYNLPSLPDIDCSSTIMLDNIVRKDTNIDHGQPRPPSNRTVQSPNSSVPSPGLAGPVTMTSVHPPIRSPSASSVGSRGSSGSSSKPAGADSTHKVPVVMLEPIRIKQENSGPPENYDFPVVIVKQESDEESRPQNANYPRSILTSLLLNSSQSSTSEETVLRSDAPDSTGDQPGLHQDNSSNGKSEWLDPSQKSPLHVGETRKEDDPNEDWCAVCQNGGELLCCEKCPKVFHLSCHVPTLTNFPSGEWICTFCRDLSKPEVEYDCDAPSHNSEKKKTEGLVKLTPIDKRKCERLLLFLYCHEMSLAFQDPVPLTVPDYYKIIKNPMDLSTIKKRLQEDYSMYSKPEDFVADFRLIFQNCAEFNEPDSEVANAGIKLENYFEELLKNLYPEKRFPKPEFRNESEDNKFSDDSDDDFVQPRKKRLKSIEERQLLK
# UniProt Q92545: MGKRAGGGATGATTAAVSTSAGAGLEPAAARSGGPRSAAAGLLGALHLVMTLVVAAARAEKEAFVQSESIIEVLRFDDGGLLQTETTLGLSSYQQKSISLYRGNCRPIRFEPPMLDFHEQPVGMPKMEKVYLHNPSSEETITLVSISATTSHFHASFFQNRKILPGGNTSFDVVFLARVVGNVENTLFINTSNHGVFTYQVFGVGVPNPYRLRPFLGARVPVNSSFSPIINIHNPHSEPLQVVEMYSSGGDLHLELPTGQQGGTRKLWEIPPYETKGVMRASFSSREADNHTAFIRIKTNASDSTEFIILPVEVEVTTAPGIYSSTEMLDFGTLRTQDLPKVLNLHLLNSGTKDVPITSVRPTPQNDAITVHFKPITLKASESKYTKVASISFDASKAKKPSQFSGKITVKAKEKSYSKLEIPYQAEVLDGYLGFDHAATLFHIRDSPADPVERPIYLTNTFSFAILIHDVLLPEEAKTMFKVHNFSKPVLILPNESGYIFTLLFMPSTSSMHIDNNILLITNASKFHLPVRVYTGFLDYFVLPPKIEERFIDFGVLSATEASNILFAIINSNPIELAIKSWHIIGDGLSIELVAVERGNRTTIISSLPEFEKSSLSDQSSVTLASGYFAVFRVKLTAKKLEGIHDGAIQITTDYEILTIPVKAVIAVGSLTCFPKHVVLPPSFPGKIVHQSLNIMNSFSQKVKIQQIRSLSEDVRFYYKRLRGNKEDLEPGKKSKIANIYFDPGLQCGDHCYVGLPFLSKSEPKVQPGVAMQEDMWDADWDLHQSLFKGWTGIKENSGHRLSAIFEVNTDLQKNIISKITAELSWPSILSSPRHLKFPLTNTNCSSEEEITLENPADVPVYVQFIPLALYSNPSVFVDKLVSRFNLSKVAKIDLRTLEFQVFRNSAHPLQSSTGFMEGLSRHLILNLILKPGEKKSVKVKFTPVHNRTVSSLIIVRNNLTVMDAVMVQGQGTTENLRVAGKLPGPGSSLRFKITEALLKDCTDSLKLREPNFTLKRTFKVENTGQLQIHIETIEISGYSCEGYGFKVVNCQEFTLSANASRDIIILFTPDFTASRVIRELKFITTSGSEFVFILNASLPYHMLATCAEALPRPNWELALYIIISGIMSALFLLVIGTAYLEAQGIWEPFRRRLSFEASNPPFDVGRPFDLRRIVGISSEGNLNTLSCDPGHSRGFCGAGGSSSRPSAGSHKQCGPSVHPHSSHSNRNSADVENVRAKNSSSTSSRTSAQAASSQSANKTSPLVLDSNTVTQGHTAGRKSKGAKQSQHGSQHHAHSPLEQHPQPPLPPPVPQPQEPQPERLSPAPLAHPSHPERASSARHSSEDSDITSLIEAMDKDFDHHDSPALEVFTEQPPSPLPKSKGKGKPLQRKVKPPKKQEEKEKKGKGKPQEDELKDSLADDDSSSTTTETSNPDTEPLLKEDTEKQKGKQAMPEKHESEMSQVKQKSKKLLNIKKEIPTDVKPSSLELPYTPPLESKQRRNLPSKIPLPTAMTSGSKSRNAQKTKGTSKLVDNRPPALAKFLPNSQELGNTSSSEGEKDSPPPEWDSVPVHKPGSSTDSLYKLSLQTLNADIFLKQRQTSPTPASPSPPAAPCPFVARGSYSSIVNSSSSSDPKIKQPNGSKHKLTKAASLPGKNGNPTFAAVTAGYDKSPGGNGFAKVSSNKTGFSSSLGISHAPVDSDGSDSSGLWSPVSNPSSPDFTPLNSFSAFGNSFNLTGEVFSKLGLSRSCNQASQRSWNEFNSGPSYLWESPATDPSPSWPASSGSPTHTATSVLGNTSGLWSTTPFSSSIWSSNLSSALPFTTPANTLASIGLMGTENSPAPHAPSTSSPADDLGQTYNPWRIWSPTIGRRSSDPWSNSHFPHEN
# UniProt Q3ZCQ8: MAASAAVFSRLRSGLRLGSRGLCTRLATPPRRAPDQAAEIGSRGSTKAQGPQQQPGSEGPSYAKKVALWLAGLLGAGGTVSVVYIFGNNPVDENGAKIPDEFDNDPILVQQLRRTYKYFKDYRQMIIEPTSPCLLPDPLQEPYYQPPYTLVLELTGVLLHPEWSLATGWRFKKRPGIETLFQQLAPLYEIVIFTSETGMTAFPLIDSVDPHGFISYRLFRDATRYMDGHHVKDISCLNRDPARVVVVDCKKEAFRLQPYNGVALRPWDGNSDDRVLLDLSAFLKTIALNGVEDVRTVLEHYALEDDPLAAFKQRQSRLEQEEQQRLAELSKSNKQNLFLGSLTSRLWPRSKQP
# UniProt O60784, whole entry: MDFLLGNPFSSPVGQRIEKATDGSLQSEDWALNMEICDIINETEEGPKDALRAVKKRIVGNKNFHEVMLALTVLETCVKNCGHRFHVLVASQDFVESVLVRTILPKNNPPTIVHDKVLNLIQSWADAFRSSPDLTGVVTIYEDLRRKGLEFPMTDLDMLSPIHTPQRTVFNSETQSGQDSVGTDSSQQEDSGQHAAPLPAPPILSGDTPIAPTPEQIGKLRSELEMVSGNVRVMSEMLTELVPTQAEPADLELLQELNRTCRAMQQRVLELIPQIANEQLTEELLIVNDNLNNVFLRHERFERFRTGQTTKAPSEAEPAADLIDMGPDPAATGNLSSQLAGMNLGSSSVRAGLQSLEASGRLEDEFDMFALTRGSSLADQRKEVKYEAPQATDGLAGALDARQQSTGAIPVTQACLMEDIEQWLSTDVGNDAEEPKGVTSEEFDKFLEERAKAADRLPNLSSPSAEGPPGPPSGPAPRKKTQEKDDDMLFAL
# UniProt P67936, whole entry: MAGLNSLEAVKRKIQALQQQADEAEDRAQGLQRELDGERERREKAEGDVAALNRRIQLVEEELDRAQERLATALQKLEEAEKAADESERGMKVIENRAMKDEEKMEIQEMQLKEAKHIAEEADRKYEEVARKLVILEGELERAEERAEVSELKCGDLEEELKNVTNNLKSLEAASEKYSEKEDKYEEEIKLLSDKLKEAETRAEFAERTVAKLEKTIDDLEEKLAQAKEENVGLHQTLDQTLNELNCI
# UniProt O96008: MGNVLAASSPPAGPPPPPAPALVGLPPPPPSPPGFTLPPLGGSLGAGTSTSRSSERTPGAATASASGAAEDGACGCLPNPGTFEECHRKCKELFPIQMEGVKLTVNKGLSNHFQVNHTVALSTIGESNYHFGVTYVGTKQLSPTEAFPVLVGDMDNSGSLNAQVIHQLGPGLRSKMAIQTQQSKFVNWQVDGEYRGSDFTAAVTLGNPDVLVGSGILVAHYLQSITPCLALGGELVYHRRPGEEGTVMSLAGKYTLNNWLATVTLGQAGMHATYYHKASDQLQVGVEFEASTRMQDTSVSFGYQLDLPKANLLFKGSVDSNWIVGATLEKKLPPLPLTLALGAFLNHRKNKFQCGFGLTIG
# UniProt Q9BVT8: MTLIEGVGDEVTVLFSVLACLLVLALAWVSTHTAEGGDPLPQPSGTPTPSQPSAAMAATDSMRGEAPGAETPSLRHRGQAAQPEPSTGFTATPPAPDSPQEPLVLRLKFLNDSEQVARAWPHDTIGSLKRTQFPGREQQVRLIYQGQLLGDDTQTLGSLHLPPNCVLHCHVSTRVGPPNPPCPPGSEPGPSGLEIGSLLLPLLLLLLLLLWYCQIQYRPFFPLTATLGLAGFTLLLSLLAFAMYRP
# UniProt Q6PL24: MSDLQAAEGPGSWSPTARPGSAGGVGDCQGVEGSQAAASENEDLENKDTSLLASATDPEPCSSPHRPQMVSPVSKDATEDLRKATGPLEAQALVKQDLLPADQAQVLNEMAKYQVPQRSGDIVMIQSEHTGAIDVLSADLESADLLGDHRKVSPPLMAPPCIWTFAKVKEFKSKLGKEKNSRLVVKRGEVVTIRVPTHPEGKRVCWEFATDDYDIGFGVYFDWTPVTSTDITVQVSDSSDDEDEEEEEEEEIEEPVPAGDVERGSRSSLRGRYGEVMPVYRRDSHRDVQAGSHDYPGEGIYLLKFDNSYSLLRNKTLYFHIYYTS
# UniProt Q9BVC6: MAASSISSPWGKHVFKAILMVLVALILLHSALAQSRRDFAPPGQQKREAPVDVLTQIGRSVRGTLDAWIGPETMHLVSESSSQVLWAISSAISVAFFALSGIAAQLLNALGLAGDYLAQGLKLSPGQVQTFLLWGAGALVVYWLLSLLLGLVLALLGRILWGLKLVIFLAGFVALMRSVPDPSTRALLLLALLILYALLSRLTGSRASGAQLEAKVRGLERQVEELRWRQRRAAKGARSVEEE
# UniProt Q969E8: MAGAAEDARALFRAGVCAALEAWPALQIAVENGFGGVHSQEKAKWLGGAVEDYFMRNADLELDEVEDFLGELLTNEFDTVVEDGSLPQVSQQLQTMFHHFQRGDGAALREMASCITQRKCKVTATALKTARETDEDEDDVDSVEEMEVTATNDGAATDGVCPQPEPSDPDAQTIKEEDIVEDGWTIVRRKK
# The list shows a part of the results.
# Compound: COc1ccc(Cn2ccc3cc(C)c(C(=O)NO)cc32)cc1
# Test: dose-dependent thermal stabilisation call (2D-TPP, DLPTP, 10% FDR) (binary (1 = stabilised)); higher = stabilised by the compound
# Settings: system: HL-60 intact cells; concentration range 0.04-10 µM
# Method: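 2D thermal proteome profiling in intact HL-60 cells treated with BRD-3811 (0, 0.04, 0.29, 2, 10 uM) for 90 min at 37 C, then heated 3 min at one of 12 temperatures (42-63.9 C). Soluble protein was quantified by TMT10 MS. The value is the DLPTP call of the paper: dose-dependent thermal stabilisation over all temperatures at 10% FDR (F-test of a dose-response against a flat model); one experiment, one call per tested protein.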
row,Target,dose-dependent thermal stabilisation call
1,TTC15 (UniProt Q8WVT3),inactive: 0
2,TOR1B (UniProt O14657),inactive: 0
3,TNIK (UniProt Q9UKE5),inactive: 0
4,TPRG1L (UniProt Q5T0D9),inactive: 0
5,TMEM164 (UniProt Q5U3C3),inactive: 0
6,TLE3 (UniProt Q04726),inactive: 0
7,TRAPPC6A (UniProt O75865),inactive: 0
8,TPK1 (UniProt Q9H3S4),inactive: 0
9,TMCO1 (UniProt Q9UM00),inactive: 0
10,TRAFD1 (UniProt O14545),inactive: 0
11,TRIM24 (UniProt O15164),inactive: 0
12,TRIM28 (UniProt Q13263),inactive: 0
13,TRIP12 (UniProt Q14669),inactive: 0
14,TMEM87A (UniProt Q8NBN3),inactive: 0
15,TNFRSF10B (UniProt O14763),inactive: 0
16,TMEM131 (UniProt Q92545),inactive: 0
17,TPRKB (UniProt Q9Y3C4),inactive: 0
18,TNIP1 (UniProt Q15025),inactive: 0
19,TIMM50 (UniProt Q3ZCQ8),inactive: 0
20,TOM1 (UniProt O60784),inactive: 0

row,Target,dose-dependent thermal stabilisation call
1,TOP3A (UniProt Q13472),inactive: 0
2,TMCO7 (UniProt Q9C0B7),inactive: 0
3,TMEM68 (UniProt Q96MH6),inactive: 0
4,TOE1 (UniProt Q96GM8),inactive: 0
5,TOPBP1 (UniProt Q92547),inactive: 0
6,TSEN34 (UniProt Q9BSV6),inactive: 0
7,THUMPD3 (UniProt Q9BV44),inactive: 0
8,TRIM26 (UniProt Q12899),inactive: 0
9,TRIM56 (UniProt Q9BRZ2),inactive: 0
10,TPM4 (UniProt P67936),inactive: 0
11,TOMM40 (UniProt O96008),inactive: 0
12,TMEM115 (UniProt Q12893),inactive: 0
13,TMUB1 (UniProt Q9BVT8),inactive: 0
14,TTC13 (UniProt Q8NBP0),inactive: 0
15,TMED8 (UniProt Q6PL24),inactive: 0
16,TRAPPC4 (UniProt Q9Y296),inactive: 0
17,TMEM109 (UniProt Q9BVC6),inactive: 0
18,TSR2 (UniProt Q969E8),inactive: 0
19,TOP2A (UniProt P11388),inactive: 0
20,TRMT5 (UniProt Q32P41),inactive: 0

# Exported as tab-separated lines: entries from further up.
row	Target	dose-dependent thermal stabilisation call
17	TMEM109 (UniProt Q9BVC6)	inactive: 0
18	TSR2 (UniProt Q969E8)	inactive: 0
